Experimental data: PubChem BioAssay AID1508597 (Cure First, 2020)

Aim: 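Survival screen with siRNA in ovarian cancer cells derived from patients, with or without rucaparib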 (primary screen)
Cell system: human ovarian carcinoma lines grown from tumours: OCI-P5x (papillary serous) and OCI-C5x (clear cell)
Knock-down reagent: siRNA pool against human genes, 1.25 pmol siRNA per well
Timing: 72 h or 96 h, depending on the cell culture
Conditions: rucaparib 20 µM (about IC30) or vehicle, present until read-out
Rucaparib or vehicle: Vehicle
Cell line: OCI-C5x (clear cell)
Read-out: 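Luminescent ATP-based viability assay read 72 or 96 h after transfection, depending on culture, given as normalised percent viability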
Direction: viability, normalised: higher = more viable cells remaining
Rule for the call: 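a well counts as a hit if its normalised viability is under 80 percent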
Calls: active = viability under 80%; inactive = viability 80% or more
This is an unselected part of the about 2,100 reagents, in one setting of the screen. 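Calls flag viability under 80% in either arm, not effects specific to rucaparib; the reference for percent is not stated.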 A reagent listed more than once was tested more than once; the source does not tell the runs apart. Not stated in the record: the 100% reference.

Target gene,technical replicate,"viability, normalised (%)",outcome
EYA2 (EYA transcriptional coactivator and phosphatase 2),1,41.4,active
EYA2 (EYA transcriptional coactivator and phosphatase 2),2,39.8,active
EYA2 (EYA transcriptional coactivator and phosphatase 2),3,46.6,active
TNKS (tankyrase),1,59.9,active
TNKS (tankyrase),2,64.2,active
TNKS (tankyrase),3,61.3,active
SND1 (staphylococcal nuclease and tudor domain containing 1),1,59.7,active
SND1 (staphylococcal nuclease and tudor domain containing 1),2,36.3,active
SND1 (staphylococcal nuclease and tudor domain containing 1),3,47.3,active
PRDM4 (PR/SET domain 4),1,38.7,active
PRDM4 (PR/SET domain 4),2,49.2,active
PRDM4 (PR/SET domain 4),3,59.1,active
KDM3B (lysine demethylase 3B),1,57.1,active
KDM3B (lysine demethylase 3B),2,53.7,active
KDM3B (lysine demethylase 3B),3,70.9,active
ACVR2B (activin A receptor type 2B),1,116,inactive
ACVR2B (activin A receptor type 2B),2,59.3,active
ACVR2B (activin A receptor type 2B),3,56.6,active
HAT1 (histone acetyltransferase 1),1,63.7,active
HAT1 (histone acetyltransferase 1),2,56.8,active
HAT1 (histone acetyltransferase 1),3,71.9,active
PHF10 (PHD finger protein 10),1,59.7,active
PHF10 (PHD finger protein 10),2,64.2,active
PHF10 (PHD finger protein 10),3,68,active
DCLRE1B (DNA cross-link repair 1B),1,32.7,active
DCLRE1B (DNA cross-link repair 1B),2,38.3,active
DCLRE1B (DNA cross-link repair 1B),3,35.6,active
PRDM1 (PR/SET domain 1),1,37,active
PRDM1 (PR/SET domain 1),2,30.1,active
PRDM1 (PR/SET domain 1),3,38.4,active
SGF29 (SAGA complex associated factor 29),1,85.7,inactive
SGF29 (SAGA complex associated factor 29),2,89,inactive
SGF29 (SAGA complex associated factor 29),3,91.2,inactive
DDX18 (DEAD-box helicase 18),1,37.6,active
DDX18 (DEAD-box helicase 18),2,52.3,active
DDX18 (DEAD-box helicase 18),3,55.6,active
IPO8 (importin 8),1,51,active
IPO8 (importin 8),2,72.3,active
IPO8 (importin 8),3,64,active
HDAC9 (histone deacetylase 9),1,47.5,active
HDAC9 (histone deacetylase 9),2,43.7,active
HDAC9 (histone deacetylase 9),3,57.6,active
MTA1 (metastasis associated 1),1,44.5,active
MTA1 (metastasis associated 1),2,42,active
MTA1 (metastasis associated 1),3,47.2,active
MRPL58 (mitochondrial ribosomal protein L58),1,68.5,active
MRPL58 (mitochondrial ribosomal protein L58),1,70.5,active
MRPL58 (mitochondrial ribosomal protein L58),2,40.5,active
MRPL58 (mitochondrial ribosomal protein L58),2,73.4,active
MRPL58 (mitochondrial ribosomal protein L58),3,67.8,active
MRPL58 (mitochondrial ribosomal protein L58),3,56.9,active
MED30 (mediator complex subunit 30),1,39.6,active
MED30 (mediator complex subunit 30),2,41.5,active
MED30 (mediator complex subunit 30),3,38.4,active
"MYC (MYC proto-oncogene, bHLH transcription factor)",1,30.1,active
"MYC (MYC proto-oncogene, bHLH transcription factor)",2,30.3,active
"MYC (MYC proto-oncogene, bHLH transcription factor)",3,24.8,active
NECAB3 (N-terminal EF-hand calcium binding protein 3),1,76.1,active
NECAB3 (N-terminal EF-hand calcium binding protein 3),2,72.4,active
NECAB3 (N-terminal EF-hand calcium binding protein 3),3,63.8,active
TIMM50 (translocase of inner mitochondrial membrane 50),1,49.6,active
TIMM50 (translocase of inner mitochondrial membrane 50),2,47.6,active
TIMM50 (translocase of inner mitochondrial membrane 50),3,66.1,active
HSPA5 (heat shock protein family A (Hsp70) member 5),1,27.1,active
HSPA5 (heat shock protein family A (Hsp70) member 5),2,31.8,active
HSPA5 (heat shock protein family A (Hsp70) member 5),3,21.1,active
"MOS (MOS proto-oncogene, serine/threonine kinase)",1,57.3,active
"MOS (MOS proto-oncogene, serine/threonine kinase)",2,76.6,active
"MOS (MOS proto-oncogene, serine/threonine kinase)",3,65.1,active
SMARCA4,1,32.4,active
SMARCA4,1,73.8,active
SMARCA4,2,57.5,active
SMARCA4,2,27.9,active
SMARCA4,3,26.1,active
SMARCA4,3,48.4,active

Targets listed so far whose target name starts with D or d:
Target gene,technical replicate,"viability, normalised (%)",outcome
DCLRE1B (DNA cross-link repair 1B),1,32.7,active
DCLRE1B (DNA cross-link repair 1B),2,38.3,active
DCLRE1B (DNA cross-link repair 1B),3,35.6,active
DDX18 (DEAD-box helicase 18),1,37.6,active
DDX18 (DEAD-box helicase 18),2,52.3,active
DDX18 (DEAD-box helicase 18),3,55.6,active
